Experimental data: the supplement of paper PMC10849652
The list shows a part of the results.

By UniProt entry, the sequences of proteins in these tests, tags left out. Where a name states a change or a piece, a line headed by the entry shows the natural chain unless it says otherwise.
UniProt O94923: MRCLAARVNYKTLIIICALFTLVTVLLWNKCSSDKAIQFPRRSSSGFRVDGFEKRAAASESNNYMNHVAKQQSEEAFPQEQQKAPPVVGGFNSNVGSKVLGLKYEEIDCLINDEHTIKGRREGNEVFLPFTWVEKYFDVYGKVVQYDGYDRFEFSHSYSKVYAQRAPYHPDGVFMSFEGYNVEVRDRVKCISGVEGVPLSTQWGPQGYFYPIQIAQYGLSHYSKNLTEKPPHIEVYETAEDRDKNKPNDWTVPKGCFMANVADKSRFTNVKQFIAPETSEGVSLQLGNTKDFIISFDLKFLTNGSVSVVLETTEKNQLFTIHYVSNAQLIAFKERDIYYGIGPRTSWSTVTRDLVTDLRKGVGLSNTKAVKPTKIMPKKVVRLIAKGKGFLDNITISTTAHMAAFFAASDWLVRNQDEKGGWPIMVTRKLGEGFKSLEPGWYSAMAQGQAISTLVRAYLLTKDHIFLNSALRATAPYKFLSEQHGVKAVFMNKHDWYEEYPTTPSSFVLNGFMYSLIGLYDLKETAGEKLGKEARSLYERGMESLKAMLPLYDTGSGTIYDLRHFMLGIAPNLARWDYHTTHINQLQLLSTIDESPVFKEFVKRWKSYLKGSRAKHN
UniProt P21695: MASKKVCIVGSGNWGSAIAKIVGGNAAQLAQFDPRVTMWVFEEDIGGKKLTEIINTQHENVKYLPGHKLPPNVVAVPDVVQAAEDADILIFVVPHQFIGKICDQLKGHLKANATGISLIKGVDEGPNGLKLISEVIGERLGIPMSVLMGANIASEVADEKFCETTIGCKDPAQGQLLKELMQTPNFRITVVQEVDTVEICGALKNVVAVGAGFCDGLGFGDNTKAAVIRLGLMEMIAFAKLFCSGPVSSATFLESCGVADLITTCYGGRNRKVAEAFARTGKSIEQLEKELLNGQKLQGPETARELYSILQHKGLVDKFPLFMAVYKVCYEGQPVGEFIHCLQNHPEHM
UniProt O75420: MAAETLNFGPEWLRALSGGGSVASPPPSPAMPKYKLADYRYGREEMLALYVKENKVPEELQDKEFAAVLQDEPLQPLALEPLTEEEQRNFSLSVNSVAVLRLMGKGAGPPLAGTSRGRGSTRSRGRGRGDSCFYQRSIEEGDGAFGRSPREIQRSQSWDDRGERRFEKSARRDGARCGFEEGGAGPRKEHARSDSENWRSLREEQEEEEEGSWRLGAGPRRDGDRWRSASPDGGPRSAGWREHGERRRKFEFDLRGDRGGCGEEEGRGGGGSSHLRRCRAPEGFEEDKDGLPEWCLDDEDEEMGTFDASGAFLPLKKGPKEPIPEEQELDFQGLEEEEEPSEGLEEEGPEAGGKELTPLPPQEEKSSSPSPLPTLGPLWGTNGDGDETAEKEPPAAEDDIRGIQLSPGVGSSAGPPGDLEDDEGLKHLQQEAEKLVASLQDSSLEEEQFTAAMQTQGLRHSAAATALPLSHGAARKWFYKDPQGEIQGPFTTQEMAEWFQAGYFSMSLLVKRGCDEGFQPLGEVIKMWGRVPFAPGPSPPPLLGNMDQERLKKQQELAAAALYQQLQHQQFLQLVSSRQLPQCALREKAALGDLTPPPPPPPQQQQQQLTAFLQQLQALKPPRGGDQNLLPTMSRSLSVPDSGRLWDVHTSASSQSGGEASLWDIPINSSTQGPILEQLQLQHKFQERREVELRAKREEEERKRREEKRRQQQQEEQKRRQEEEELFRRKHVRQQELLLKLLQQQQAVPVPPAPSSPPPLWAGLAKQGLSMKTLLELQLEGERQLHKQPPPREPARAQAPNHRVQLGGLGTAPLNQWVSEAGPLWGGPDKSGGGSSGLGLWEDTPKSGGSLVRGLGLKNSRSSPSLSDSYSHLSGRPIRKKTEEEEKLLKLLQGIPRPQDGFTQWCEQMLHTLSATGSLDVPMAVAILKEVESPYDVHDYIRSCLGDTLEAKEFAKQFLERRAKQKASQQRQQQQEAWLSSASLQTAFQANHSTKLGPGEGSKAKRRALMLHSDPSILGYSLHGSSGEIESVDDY
UniProt Q14161: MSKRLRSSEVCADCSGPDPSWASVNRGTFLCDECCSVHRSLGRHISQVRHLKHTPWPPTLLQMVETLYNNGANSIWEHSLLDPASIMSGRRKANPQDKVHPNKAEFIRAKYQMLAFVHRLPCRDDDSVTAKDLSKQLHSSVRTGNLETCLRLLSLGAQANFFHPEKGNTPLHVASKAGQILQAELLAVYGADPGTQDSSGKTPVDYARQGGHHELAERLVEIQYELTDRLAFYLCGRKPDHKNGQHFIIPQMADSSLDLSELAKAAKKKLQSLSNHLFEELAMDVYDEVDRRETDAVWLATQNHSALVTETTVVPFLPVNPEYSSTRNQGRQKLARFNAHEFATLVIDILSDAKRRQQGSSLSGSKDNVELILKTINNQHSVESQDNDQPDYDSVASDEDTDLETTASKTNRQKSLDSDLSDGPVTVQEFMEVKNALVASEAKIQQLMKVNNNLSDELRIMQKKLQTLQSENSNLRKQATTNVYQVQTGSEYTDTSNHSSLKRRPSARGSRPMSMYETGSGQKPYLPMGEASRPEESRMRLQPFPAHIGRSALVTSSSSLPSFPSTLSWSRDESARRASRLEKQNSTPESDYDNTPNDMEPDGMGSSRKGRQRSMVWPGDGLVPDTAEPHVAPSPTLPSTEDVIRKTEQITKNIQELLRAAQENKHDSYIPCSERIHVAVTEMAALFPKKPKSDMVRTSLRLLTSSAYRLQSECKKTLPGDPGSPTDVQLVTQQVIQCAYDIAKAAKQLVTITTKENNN
UniProt Q13227: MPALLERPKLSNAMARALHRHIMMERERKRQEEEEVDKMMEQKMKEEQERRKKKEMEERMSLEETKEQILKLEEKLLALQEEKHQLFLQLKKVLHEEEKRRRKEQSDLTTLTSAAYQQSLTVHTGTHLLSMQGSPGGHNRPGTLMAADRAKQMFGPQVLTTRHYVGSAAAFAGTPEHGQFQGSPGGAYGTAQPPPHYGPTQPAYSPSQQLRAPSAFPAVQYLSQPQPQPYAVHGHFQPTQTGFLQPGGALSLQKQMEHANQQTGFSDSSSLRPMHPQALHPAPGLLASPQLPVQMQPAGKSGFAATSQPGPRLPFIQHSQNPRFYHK
UniProt Q6ZS86: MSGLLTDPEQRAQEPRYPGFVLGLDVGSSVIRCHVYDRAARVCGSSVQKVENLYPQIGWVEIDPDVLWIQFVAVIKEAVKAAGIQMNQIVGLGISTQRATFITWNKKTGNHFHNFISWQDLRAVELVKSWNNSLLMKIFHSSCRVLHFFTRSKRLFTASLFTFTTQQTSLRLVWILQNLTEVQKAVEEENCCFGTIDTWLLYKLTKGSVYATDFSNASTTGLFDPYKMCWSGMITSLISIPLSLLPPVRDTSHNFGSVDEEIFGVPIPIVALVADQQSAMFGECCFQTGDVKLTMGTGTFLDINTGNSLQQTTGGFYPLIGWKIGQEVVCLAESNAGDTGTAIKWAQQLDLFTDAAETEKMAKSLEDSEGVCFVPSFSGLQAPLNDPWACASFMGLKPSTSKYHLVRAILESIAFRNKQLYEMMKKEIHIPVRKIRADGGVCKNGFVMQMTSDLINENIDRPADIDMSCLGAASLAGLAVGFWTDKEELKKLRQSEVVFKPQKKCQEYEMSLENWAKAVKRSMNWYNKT
UniProt Q9NZD2: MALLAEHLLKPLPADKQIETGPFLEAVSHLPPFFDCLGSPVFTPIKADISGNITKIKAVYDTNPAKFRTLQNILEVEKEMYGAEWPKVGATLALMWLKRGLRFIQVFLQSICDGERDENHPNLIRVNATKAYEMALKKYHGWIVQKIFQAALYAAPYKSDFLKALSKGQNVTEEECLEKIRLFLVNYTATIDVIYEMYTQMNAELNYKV
UniProt Q9NU53: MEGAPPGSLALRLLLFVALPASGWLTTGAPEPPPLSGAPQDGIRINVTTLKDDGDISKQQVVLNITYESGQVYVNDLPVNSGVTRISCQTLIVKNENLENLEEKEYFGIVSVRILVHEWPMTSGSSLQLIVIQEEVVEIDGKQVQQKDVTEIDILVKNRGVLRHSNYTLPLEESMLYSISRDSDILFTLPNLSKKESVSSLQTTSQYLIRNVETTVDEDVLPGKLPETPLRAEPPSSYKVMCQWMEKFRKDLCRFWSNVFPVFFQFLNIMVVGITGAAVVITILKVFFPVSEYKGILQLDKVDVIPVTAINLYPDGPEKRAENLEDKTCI
UniProt P22352, whole entry, looked up: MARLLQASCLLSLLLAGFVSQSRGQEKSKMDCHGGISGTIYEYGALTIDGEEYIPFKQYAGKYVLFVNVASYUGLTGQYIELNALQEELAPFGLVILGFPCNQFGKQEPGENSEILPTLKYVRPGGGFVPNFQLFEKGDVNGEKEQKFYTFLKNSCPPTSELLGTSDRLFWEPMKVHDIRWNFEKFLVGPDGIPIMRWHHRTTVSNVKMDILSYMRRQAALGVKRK
UniProt Q14687: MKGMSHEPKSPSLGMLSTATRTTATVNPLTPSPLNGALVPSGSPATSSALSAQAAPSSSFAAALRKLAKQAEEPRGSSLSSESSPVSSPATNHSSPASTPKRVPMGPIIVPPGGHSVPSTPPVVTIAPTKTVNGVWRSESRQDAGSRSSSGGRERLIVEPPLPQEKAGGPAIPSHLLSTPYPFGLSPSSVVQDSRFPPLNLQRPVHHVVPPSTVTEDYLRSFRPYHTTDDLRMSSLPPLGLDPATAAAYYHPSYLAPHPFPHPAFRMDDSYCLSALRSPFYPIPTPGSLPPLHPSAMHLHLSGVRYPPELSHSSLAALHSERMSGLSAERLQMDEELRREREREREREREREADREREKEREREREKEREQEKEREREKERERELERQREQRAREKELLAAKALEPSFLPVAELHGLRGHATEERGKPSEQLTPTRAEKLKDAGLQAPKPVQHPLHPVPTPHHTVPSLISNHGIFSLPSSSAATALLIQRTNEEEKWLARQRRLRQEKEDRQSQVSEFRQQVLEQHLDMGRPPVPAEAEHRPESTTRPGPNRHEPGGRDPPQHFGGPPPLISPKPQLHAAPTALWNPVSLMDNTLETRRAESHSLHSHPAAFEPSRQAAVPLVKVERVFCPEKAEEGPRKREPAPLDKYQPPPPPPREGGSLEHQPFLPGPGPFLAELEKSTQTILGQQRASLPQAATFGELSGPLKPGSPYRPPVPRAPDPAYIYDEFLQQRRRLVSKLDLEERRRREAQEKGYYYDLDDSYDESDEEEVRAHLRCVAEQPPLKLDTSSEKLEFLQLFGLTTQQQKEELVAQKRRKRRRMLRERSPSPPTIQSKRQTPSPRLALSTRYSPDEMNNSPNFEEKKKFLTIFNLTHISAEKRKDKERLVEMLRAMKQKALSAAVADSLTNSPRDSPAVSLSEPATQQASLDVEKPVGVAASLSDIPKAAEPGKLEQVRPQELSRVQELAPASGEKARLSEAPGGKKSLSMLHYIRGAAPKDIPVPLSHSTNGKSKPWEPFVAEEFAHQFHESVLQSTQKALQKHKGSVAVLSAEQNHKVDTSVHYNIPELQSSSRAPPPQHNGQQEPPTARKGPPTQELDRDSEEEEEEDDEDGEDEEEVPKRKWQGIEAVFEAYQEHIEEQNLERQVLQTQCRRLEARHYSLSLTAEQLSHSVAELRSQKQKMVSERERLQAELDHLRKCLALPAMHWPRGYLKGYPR
UniProt Q9BVP2: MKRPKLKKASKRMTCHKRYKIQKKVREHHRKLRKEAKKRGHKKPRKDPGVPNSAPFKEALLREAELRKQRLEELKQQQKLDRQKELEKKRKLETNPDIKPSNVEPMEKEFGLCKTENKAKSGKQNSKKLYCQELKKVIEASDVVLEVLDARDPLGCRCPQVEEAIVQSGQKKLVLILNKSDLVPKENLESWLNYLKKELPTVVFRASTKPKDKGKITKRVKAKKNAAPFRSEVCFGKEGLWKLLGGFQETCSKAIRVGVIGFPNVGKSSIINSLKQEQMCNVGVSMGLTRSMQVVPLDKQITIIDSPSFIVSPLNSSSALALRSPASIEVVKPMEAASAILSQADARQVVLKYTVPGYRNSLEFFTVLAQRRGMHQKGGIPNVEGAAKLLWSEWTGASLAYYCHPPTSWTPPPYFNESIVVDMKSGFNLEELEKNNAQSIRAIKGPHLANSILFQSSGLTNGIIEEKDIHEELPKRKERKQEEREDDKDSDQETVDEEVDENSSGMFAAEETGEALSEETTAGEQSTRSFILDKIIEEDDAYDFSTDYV
UniProt Q9UJJ9: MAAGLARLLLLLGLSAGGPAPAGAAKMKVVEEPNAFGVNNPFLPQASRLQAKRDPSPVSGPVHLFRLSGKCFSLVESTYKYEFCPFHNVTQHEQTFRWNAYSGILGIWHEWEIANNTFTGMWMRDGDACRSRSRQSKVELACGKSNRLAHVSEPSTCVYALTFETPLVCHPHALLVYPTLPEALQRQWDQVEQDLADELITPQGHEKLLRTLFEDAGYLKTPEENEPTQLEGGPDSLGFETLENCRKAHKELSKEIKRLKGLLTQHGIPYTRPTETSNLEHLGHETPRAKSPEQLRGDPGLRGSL

compound: COc1cc2nc(-c3cc(F)ccc3O)nc(N[C@@H]3CNC[C@H]3C(C)(C)O)c2cc1OC; experiment: log2 fold change, soluble protein after heating vs DMSO (PISA); higher = thermal stabilisation; K562 cells, 10 uM, 30 min; active = over 0.2 and 3.5 SD of the protein, either way, in both replicates (recomputed)
Procedure, shortened: (§1)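 K562 cells (2×10^6 cells/mL) were treated with 10 μM compound for 30 min, and aliquots were heated for 3 min over 48°C-58°C. Pooled aliquots were extracted in PBS with 0.5% NP-40 at 4°C, and the supernatant after 21,000xg for 90 min was measured by TMTpro 16plex LC-MS/MS with channel sums equalised. Reported thermal stability, relative to control samples and from duplicates, is a log2 fold change.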

Q: For GLCE (UniProt O94923), which log2 fold change is on record?
A: inactive: 0.145

Q: How did the log2 fold change turn out when GPD1 (UniProt P21695) was run?
A: inactive: -0.051

Q: Which log2 fold change does the source give for GIGYF1 (UniProt O75420) here?
A: inactive: 0.261

Q: For GIT2 (UniProt Q14161), which log2 fold change is on record?
A: inactive: 0.091

Q: How did the log2 fold change turn out when GPS2 (UniProt Q13227) was run?
A: inactive: 0.135

Q: Which log2 fold change does the source give for GK5 (UniProt Q6ZS86) here?
A: inactive: -0.025

Q: GOLGA1 (UniProt Q92805) was tested. Which log2 fold change did it give?
A: inactive: -0.236

Q: With GOLM1 (UniProt Q8NBJ4) as the target, how does the log2 fold change read?
A: inactive: -0.004

Q: With GORASP1 (UniProt Q9BQQ3) as the target, how does the log2 fold change read?
A: inactive: -0.138

Q: With GOPC (UniProt Q9HD26) as the target, how does the log2 fold change read?
A: active: 0.668

Q: How did the log2 fold change turn out when GLTP (UniProt Q9NZD2) was run?
A: inactive: 0.167

Q: For GPAM (UniProt Q9HCL2), which log2 fold change is on record?
A: inactive: 0.079

Q: GINM1 (UniProt Q9NU53) was tested. Which log2 fold change did it give?
A: inactive: -0.129

Q: With GPATCH4 isoform 3 (UniProt Q5T3I0) as the target, how does the log2 fold change read?
A: inactive: 0.078

Q: With GPT2 (UniProt Q8TD30) as the target, how does the log2 fold change read?
A: inactive: 0.066

Q: GOSR1 (UniProt E9PCW1) was tested. Which log2 fold change did it give?
A: inactive: -0.262

Q: For GOLGA8R (UniProt I6L899), which log2 fold change is on record?
A: inactive: 0.345

Q: How did the log2 fold change turn out when GPX3 (UniProt P22352) was run?
A: inactive: -0.002

compound: COc1cc2ncnc(Nc3ccc(F)c(Cl)c3)c2cc1OCCCN1CCOCC1 [gefitinib]; experiment: as above
Procedure, shortened: as §1

Q: GLCE (UniProt O94923) was tested. Which log2 fold change did it give?
A: inactive: 0.221

Q: GPD1 (UniProt P21695) was tested. Which log2 fold change did it give?
A: inactive: 0.368

Q: With GPAA1 (UniProt E9PLG8) as the target, how does the log2 fold change read?
A: inactive: -0.062

Q: For GSE1 (UniProt Q14687), which log2 fold change is on record?
A: inactive: 0.224

Q: How did the log2 fold change turn out when GIT2 (UniProt Q14161) was run?
A: inactive: 0.115

Q: GPS2 (UniProt Q13227) was tested. Which log2 fold change did it give?
A: inactive: 0.008

Q: How did the log2 fold change turn out when GOLM1 (UniProt Q8NBJ4) was run?
A: inactive: -0.028

Q: Which log2 fold change does the source give for GNL3 (UniProt Q9BVP2) here?
A: inactive: 0.067

Q: With GOPC (UniProt Q9HD26) as the target, how does the log2 fold change read?
A: inactive: 0.137

Q: GLT8D1 (UniProt Q68CQ7) was tested. Which log2 fold change did it give?
A: inactive: 0.014

Q: For GLTP (UniProt Q9NZD2), which log2 fold change is on record?
A: inactive: 0.024

Q: With GPAM (UniProt Q9HCL2) as the target, how does the log2 fold change read?
A: inactive: 0.048

Q: For GINM1 (UniProt Q9NU53), which log2 fold change is on record?
A: inactive: -0.367

Q: Which log2 fold change does the source give for GPS1 (UniProt A8K070) here?
A: inactive: 0.045

Q: How did the log2 fold change turn out when GNPTG (UniProt Q9UJJ9) was run?
A: inactive: 0.083

Q: Which log2 fold change does the source give for GOLGA6B (UniProt A6NDN3) here?
A: inactive: 0.012
